# PubChem BioAssay AID493014 (National Center for Advancing Translational Sciences (NCATS), 2011)
# The list shows a part of the results. Further columns of the screen follow, without active or inactive calls. The list favours compounds with an active or inconclusive main result. The note in brackets gives the kind of curve behind each potency; many fits are weak.
# Assay: qHTS Assay to Find Inhibitors of Chronic Active B-Cell Receptor Signaling
# Settings: ABC-DLBCL IkBa-CBG/CBR reporter, luminescence ratio (green luciferase fused to IkBa over red control in TMD8 lymphoma cells), 4 h
# Outline: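 TMD8 human ABC-DLBCL cells with doxycycline-inducible IκBα–green luciferase fusion and unfused red luciferase, in 0.5% FBS medium; compounds up to 46 uM, 4 h at 37C. Green/red luminescence ratio, filter-overlap corrected, fitted to concentration-response curves.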
# [1] = measured here: CBR red luminescence, cell number
# [2] = measured here: IkBa-CBG green luminescence
Compound,AC50 [1],AC50 [2]
O=C(NCc1ccco1)c1c2c(nc3ccccc13)CCC2,"10 µM [falling, partial curve, poor fit]",–
Cc1ccc(Cl)cc1N1CCN(C(=O)CCCn2c(=O)c3cccn3c3cccnc32)CC1,"35.5 µM [falling, single point]",–
COc1ccc(C2Cc3ccccc3C(=O)O2)cc1 (configuration not stated),"0.82 µM [rising, full curve, poor fit]",–
O=C(CCN1C(=O)/C(=C\C=C\c2ccccc2)SC1=S)Nc1ccc(C(=O)O)cc1,"1.12 µM [falling, full curve]",–
COc1ccc([N+](=O)[O-])cc1NC(=O)CCC(=O)c1cccs1,"31.6 µM [rising, single point]",–
CCOc1cc(NC(=S)Nc2ccc(Cl)cc2)c(OCC)cc1NC(C)=O,"8.91 µM [rising, partial curve, poor fit]",–
COc1ccc(NC(=O)c2cc(S(=O)(=O)N3CCCCC3)c[nH]2)cc1,"0.112 µM [rising, full curve, poor fit]",–
O=C(N/N=C/c1cccc(F)c1)c1c(O)c2ccccc2[nH]c1=O,"0.0291 µM [falling, full curve]",–
Cc1ccc(-c2ccnc3c(Cl)c(C)nn23)cc1,"10 µM [rising, partial curve, poor fit]",–
CCCCCCSc1nsc(NC(=O)CCC)n1,"12.6 µM [rising, partial curve]",–
COc1cccc(C2CC(=O)Nc3cc(OC)c(OC)c(OC)c32)c1OC (configuration not stated),"10 µM [rising, partial curve, poor fit]",–
CC1CCCC(NC(=O)C2CCN(S(=O)(=O)N3CCCCC3)CC2)C1C (configuration not stated),"6.31 µM [rising, full curve, poor fit]",–
Cc1cccc(Nc2nnc(SCC(=O)NCc3cccs3)s2)c1,"0.708 µM [falling, full curve, poor fit]",–
O=C(Nc1ccn(Cc2ccccc2)n1)c1cccc(F)c1,"17.8 µM [falling, single point]",–
COC(=O)c1ccccc1NC(=O)CSc1nnnn1C1CCCCC1,"32.6 µM [falling, single point]",–
COc1ccc(-c2nn(-c3ccccc3)cc2/C=C(/C#N)C(N)=O)cc1[N+](=O)[O-],"2.91 µM [rising, full curve, poor fit]",–
COc1ccc2c(C)cc(SCC#N)nc2c1,"15.8 µM [falling, partial curve, poor fit]",–
FCCCOc1ccc(/C=N/OCc2ccc(Cl)cc2Cl)cc1,"35.5 µM [rising, single point]",–
CN(C)S(=O)(=O)c1cccc(NC(=S)N/N=C/c2cc(Br)ccc2O)c1,"12.6 µM [falling, partial curve, poor fit]",–
COc1ccccc1N1CCN(C(=O)c2cc(-c3ccc(F)cc3)[nH]c2C)CC1,"11.2 µM [falling, partial curve]",–
CC(C)c1ccc(CN2CC(C(=O)O)CC2=O)cc1 (configuration not stated),"8.2 µM [falling, partial curve, poor fit]",–

# 13 successive records already listed, quoted:
Compound,AC50 [1],AC50 [2]
O=C(CCN1C(=O)/C(=C\C=C\c2ccccc2)SC1=S)Nc1ccc(C(=O)O)cc1,"1.12 µM [falling, full curve]",–
COc1ccc([N+](=O)[O-])cc1NC(=O)CCC(=O)c1cccs1,"31.6 µM [rising, single point]",–
CCOc1cc(NC(=S)Nc2ccc(Cl)cc2)c(OCC)cc1NC(C)=O,"8.91 µM [rising, partial curve, poor fit]",–
COc1ccc(NC(=O)c2cc(S(=O)(=O)N3CCCCC3)c[nH]2)cc1,"0.112 µM [rising, full curve, poor fit]",–
O=C(N/N=C/c1cccc(F)c1)c1c(O)c2ccccc2[nH]c1=O,"0.0291 µM [falling, full curve]",–
Cc1ccc(-c2ccnc3c(Cl)c(C)nn23)cc1,"10 µM [rising, partial curve, poor fit]",–
CCCCCCSc1nsc(NC(=O)CCC)n1,"12.6 µM [rising, partial curve]",–
COc1cccc(C2CC(=O)Nc3cc(OC)c(OC)c(OC)c32)c1OC (configuration not stated),"10 µM [rising, partial curve, poor fit]",–
CC1CCCC(NC(=O)C2CCN(S(=O)(=O)N3CCCCC3)CC2)C1C (configuration not stated),"6.31 µM [rising, full curve, poor fit]",–
Cc1cccc(Nc2nnc(SCC(=O)NCc3cccs3)s2)c1,"0.708 µM [falling, full curve, poor fit]",–
O=C(Nc1ccn(Cc2ccccc2)n1)c1cccc(F)c1,"17.8 µM [falling, single point]",–
COC(=O)c1ccccc1NC(=O)CSc1nnnn1C1CCCCC1,"32.6 µM [falling, single point]",–
COc1ccc(-c2nn(-c3ccccc3)cc2/C=C(/C#N)C(N)=O)cc1[N+](=O)[O-],"2.91 µM [rising, full curve, poor fit]",–

# Next structures.

Compound,AC50 [1],AC50 [2]
COc1ccccc1-c1cc(C(=O)NCCN2CCOCC2)no1,"10 µM [falling, partial curve, poor fit]",–
CCn1c(SCC(=O)N2CCN(c3ccccc3)CC2)nc2c([nH]c3ccccc32)c1=O,"0.794 µM [falling, full curve, poor fit]",–
CCC1CCCCN1c1cc(C)nc2cc(-c3cccc(C)c3)nn12 (configuration not stated),"18.4 µM [rising, single point]",–
CCN(c1ccccc1)c1nc2ccsc2c(=O)s1,"4.11 µM [rising, full curve]",–
CC1(C)CC(N2CCN(C(c3ccccc3)c3ccccc3)CC2)=CC(=[N+]2CCCCC2)C1,"10 µM [falling, partial curve]",–
CCN1/C(=C/c2ccc3cc(C)cc(C)c3[n+]2CC)Sc2cc(C)ccc21,"35.5 µM [falling, single point]",–
Cc1cccc(N2CC(C(=O)NCCC3=CCCCC3)CC2=O)c1C (configuration not stated),"32.6 µM [falling, single point]",–
CCC/C(=N\NC(=O)c1ccccc1C)c1ccccc1,"9.2 µM [falling, partial curve]",–
CCOC(=O)C1=C(C)Nc2ccccc2N=C1NC(=O)C(c1ccccc1)c1ccccc1,"17.8 µM [falling, single point]",–
C(=N\n1cnnc1)/c1ccccc1OCCOc1ccccc1,"5.01 µM [rising, full curve, poor fit]",–
Cc1ccc2c(COC(=O)c3n[nH]c4ccccc34)cc(=O)oc2c1,"0.562 µM [falling, full curve]",–
COc1ccc(C)cc1NC(=O)CSc1nc(=O)[nH]c2c1CCCC2,"0.316 µM [falling, full curve]",–
Cc1cccc(NC(=O)CSc2nc3ccccc3nc2N2CCCC2)c1,"15.8 µM [falling, single point]",–
Cc1ccsc1/C=N/n1c(-c2ccccc2)n[nH]c1=S,"0.82 µM [falling, full curve, poor fit]",–
COc1ccc2nc(N3CCCC3)c(C#N)cc2c1,"18.4 µM [rising, single point]",–
COc1ccc(/C=N/NC(=O)c2[nH]c3ccc(Br)cc3c2-c2ccccc2)cc1,"1.84 µM [rising, partial curve, poor fit]","1.64 µM [falling, full curve]"
O=C(CSC1=N/C(=C/c2ccc(Cl)c(Cl)c2)C(=O)N1c1ccccc1F)NC1CC1,"0.731 µM [rising, partial curve, poor fit]",–
CN(C)c1ccc(/C=C/C(=O)c2cc(Cl)ccc2O)cc1,"4.47 µM [rising, full curve, poor fit]",–
CCCn1nc(Oc2nc(N(C)C)nc(N(C)C)n2)ccc1=O,"35.5 µM [rising, single point]","8.91 µM [falling, partial curve, poor fit]"
Cc1cccnc1NC(=O)CSc1nnc(COc2ccc(C(C)C)cc2)n1C,"3.66 µM [rising, partial curve]",–
Cc1cnn(CCC(=O)NNC(=S)NCC(C)C)c1,–,"23.1 µM [falling, partial curve]"

Compound,AC50 [1],AC50 [2]
CCn1c(C)c2c([n+]1CC)CC(C)(C)CC2=O,"6.51 µM [falling, single point]",–
Cc1cccc2c(=O)c(C(=O)NCCc3ccccc3)c[nH]c12,"14.1 µM [falling, single point]",–
COc1ccccc1Nc1cc(C)nc(Nc2ccccc2OC)n1,"23.1 µM [falling, single point]",–
CC(=O)Nc1ccccc1OCc1nnc(-c2cccs2)o1,"4.11 µM [rising, single point]",–
CCN(CC(=O)Nc1c(F)cccc1F)C(=O)CCc1nc2cc(S(=O)(=O)N(C)C)ccc2n1CC,"6.31 µM [rising, single point]",–
CNC1=C(N(C(C)=O)c2ccc(Br)cc2)C(=O)c2ccccc2C1=O,"14.6 µM [falling, partial curve]",–
CCN(CC)C(=S)SCC(=O)Nc1nc(=O)c2ccccc2s1,"3.66 µM [falling, full curve]",–
Cc1ccc(N(CC(=O)Nc2ccc3c(c2)OCCO3)S(=O)(=O)c2c(C)noc2C)cc1,"2.24 µM [falling, partial curve, poor fit]",–
COCCNc1nc(-c2ccccc2)nc2c1oc1ccccc12,"3.55 µM [falling, partial curve, poor fit]","5.01 µM [rising, full curve, poor fit]"
Cc1ccc(NC(=O)c2cnc(SCC(=O)NCC3CCCO3)n(C)c2=O)cc1C (configuration not stated),"14.6 µM [falling, partial curve, poor fit]",–
COc1ccc(N2C(=O)C3CCCN3C2c2ccccc2)cc1 (configuration not stated),"11.2 µM [rising, partial curve, poor fit]",–
O=CN1CCCN(Cc2nc(-c3cccc(Cl)c3)no2)CC1,"3.55 µM [rising, full curve, poor fit]",–
COc1cc(NC(=O)NC(C)c2c(-n3cccc3)sc3c2CCN(C)C3)cc(OC)c1 (configuration not stated),"15.8 µM [falling, single point]",–
C=CCc1cccc(CNc2nc3ccccc3n2CC)c1O,"2.51 µM [rising, partial curve, poor fit]",–
NNC(=O)c1cc(C2CC2)nc2ccc(Br)cc12,"35.5 µM [rising, single point]",–
CCc1ccc(/C=C2/SC(=S)N(CCC(=O)Nc3cccnc3)C2=O)cc1,"17.8 µM [falling, partial curve]",–
Clc1cccc(Cl)c1CNc1ccc(N2CCCC2)cc1,"35.5 µM [falling, single point]",–
Cc1cc(NC(=O)CCC(=O)N(CC(=O)NCC2CCCO2)c2ccc(F)c(Cl)c2)no1 (configuration not stated),"5.62 µM [rising, single point]",–
Cc1[nH]c(=O)[nH]c(=O)c1S(=O)(=O)N1CCCC(C(=O)NCc2ccco2)C1 (configuration not stated),"16.4 µM [falling, partial curve]","29.1 µM [rising, partial curve, poor fit]"
O=C(O)c1ccccc1NS(=O)(=O)c1cccc(-n2sc3ccccc3c2=O)c1,"8.91 µM [falling, partial curve, poor fit]",–
Cc1[nH]n(-c2ccccc2)c(=O)c1C1(C(F)(F)F)C(=O)N(c2ccccc2)C2=C1C(=O)CC(C)(C)C2 (configuration not stated),"29.1 µM [falling, partial curve, poor fit]",–
